Data on 36 compounds can be found in PubChem BioAssay AID2685 (National Center for Advancing Translational Sciences (NCATS), 2010).

A short description of this assay: qHTS Assay for Lipid Storage Modulators in Drosophila S3 Cells.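 On cell number change: cells counted by Cell Tracker Red CMTPX staining in the red channel.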 Conditions: BODIPY lipid droplet fluorescence, 18-24 h; for cell number change: measured here: cell count max response, cells fed with added oleic acid. In short, it runs like this: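 Drosophila S3 cells got compounds at several concentrations plus oleic acid (400 uM solution). Laser-scanning cytometry with 488 nm excitation read lipid droplets at 500-530 nm and cells at 575-640 nm. Percent activity was relative to 20 uM Triacsin C.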

The mark [1] stands for this setting: measured here: cell number channel AC50, cells fed with added oleic acid.
[2] abbreviates: measured here: lipid fluorescence (Fed channel) AC50, cells fed with added oleic acid.

This is one part of the list. Further columns of the screen follow, without active or inactive calls. Compounds called inactive in the main read-out are mostly missing here. The note in brackets gives the kind of curve behind each potency; many fits are weak.

Take `O=S(=O)(NCc1ccc(F)cc1)c1ccccc1Br`: the cell number change was -37.3%. Besides, the AC50 under setting [1] was 23.1 µM [falling, partial curve, poor fit]. Further, under setting [2], the AC50 was 1.46 µM [falling, full curve, poor fit].
Regarding `CCN(CC)S(=O)(=O)c1ccc(N2C(=O)Nc3ccccc3N2O)cc1`, the cell number change came out at 17.3%. Also, the concentration at half-maximal activity (AC50) under setting [2] is 6.51 µM [rising, partial curve, poor fit].
Take `N#CC1=C(N)Oc2n[nH]c(-c3cccnc3)c2C1c1ccc([N+](=O)[O-])o1` (centres undefined): the cell number change is -56.9%. Besides, the AC50 under setting [1] was 1.3 µM [falling, partial curve, poor fit]. In addition, under setting [2], the AC50 is 6.51 µM [rising, partial curve].
Turning to `Cc1ccc(/C(N)=N/OC(=O)CCC2CCCC2)cc1`, the cell number change is -30.3%. Besides, under setting [1], the AC50 was 0.092 µM [falling, full curve]. For the same compound, the half-maximal activity concentration (AC50) under setting [2] is 0.164 µM [falling, full curve].
On to `Clc1ccc(SCc2cn3cccnc3n2)cc1`, for which the cell number change was determined as 12.5%.
Consider `CCN(CC)C(=O)CSc1nsc(SCC(=O)N(CC)CC)c1C#N`, for which the cell number change was -19.5%. Moreover, under setting [2], the AC50 was 29.1 µM [falling, single point].
Take `CCC(C)Sc1nc(O)cc(=O)[nH]1` (centres undefined): the cell number change was 0.455%. For the same compound, the AC50 under setting [2] is 2.31 µM [falling, partial curve].
Consider `O=C(NNC(=O)C12CC3CC(CC(C3)C1)C2)c1cccc([N+](=O)[O-])c1`, for which the cell number change is -31.6%.
In the case of `COc1nc(C#N)c(N2CCOCC2)o1`, the cell number change is -183%. Further, the AC50 under setting [1] was 29.1 µM [falling, single point].
For the compound `O=C(CCNC(=O)N1CCn2c1nc1ccccc12)NCc1ccccc1Cl`, the cell number change was determined as 16.9%. For the same compound, the half-maximal activity concentration (AC50) under setting [2] is 13 µM [falling, partial curve].
Consider `O=C(NCc1ccco1)C(c1ccncc1)N(CCC1=CCCCC1)C(=O)Cn1nnc2ccccc21` (centres undefined), for which the cell number change is -2.49%. The AC50 under setting [1] is 2.31 µM [rising, partial curve]. For the same compound, the half-maximal activity concentration (AC50) under setting [2] was 0.651 µM [falling, single point].
Regarding `COc1ccc(-n2nc(C(=O)NCC(=O)NCCC3=CCCCC3)c3ccccc3c2=O)c(OC)c1`, the cell number change worked out at 97.7%. The AC50 under setting [1] was 25.9 µM [rising, partial curve].
Consider `O=C(O)c1c[nH]c2ccc(F)cc2c1=O`, for which the cell number change is -51.8%. Also, under setting [1], the half-maximal activity concentration (AC50) was 23.1 µM [falling, partial curve]. Further, under setting [2], the half-maximal activity concentration (AC50) was 23.1 µM [falling, partial curve, poor fit].
On to `COc1cc(S(=O)(=O)N2CCN(Cc3cccs3)CC2)ccc1NC(C)=O`, for which the cell number change turned out to be 5.62%. Besides, the AC50 under setting [2] is 16.4 µM [rising, single point].
Turning to `COc1ccccc1NC(=O)c1ccc(Cl)c(S(=O)(=O)NCc2ccco2)c1`, the cell number change came out at 1.42%. Also, under setting [2], the half-maximal activity concentration (AC50) is 0.517 µM [rising, single point].
For `O=C(N/N=C1\CC2CC=CC12)c1ccccc1Cl` (centres undefined), the AC50 under setting [1] was 0.00517 µM [rising, full curve, poor fit] and the AC50 under setting [2] was 0.00517 µM [rising, full curve, poor fit].
On to `CC(=O)c1ccc(NC(=O)c2ccc3c(=O)n4c(nc3c2)CCCCC4)cc1`, for which the cell number change was -29.5%. In addition, under setting [1], the AC50 is 3.26 µM [falling, single point]. In addition, under setting [2], the AC50 was 3.26 µM [falling, partial curve, poor fit].
In the case of `Cc1ccc2c(c1)C(O)(CC(=O)c1ccc(C)s1)C(=O)N2` (centres undefined), the cell number change was -17.8%.
As to `Cc1onc(C(=O)Nc2ccc(OC(F)(F)F)cc2)c1[N+](=O)[O-]`, the cell number change stood at 2.28%. Besides, the AC50 under setting [2] is 7.31 µM [rising, partial curve, poor fit].
On to `COc1ccc2c(C)c(CC(=O)N3CCN(C(=O)C4COc5ccccc5O4)CC3)c(=O)oc2c1C` (centres undefined), for which the cell number change was 20.2%.
As for `CC(C)C(=O)N(Nc1nc2ccccc2s1)C(=O)C(C)C`, the cell number change was -9.61%. Further, under setting [2], the AC50 was 11.6 µM [falling, partial curve].
As for `CC(C)Sc1nnc(SCC(=O)NCCCN2CCCC2=O)s1`, the cell number change came out at 9.44%. Also, the AC50 under setting [2] is 6.51 µM [rising, partial curve, poor fit].
As to `O=C(O)C1CC(=O)N(c2ccc(F)c(F)c2)C1` (centres undefined), the cell number change was -36.6%. Further, under setting [1], the AC50 was 1.84 µM [falling, full curve]. For the same compound, the AC50 under setting [2] was 1.46 µM [falling, full curve].
Take `Cc1cccc(N2CCN(C(=O)Cn3nc(C)n4cccc4c3=O)CC2C)c1` (centres undefined): the cell number change was determined as 7.49%. Also, the AC50 under setting [2] is 16.4 µM [rising, partial curve].
For `COc1ccc(N2CC(O)=C(c3nc4ccccc4s3)C2=N)c(OC)c1`, the cell number change turned out to be 1.89%. The AC50 under setting [2] is 0.231 µM [rising, full curve, poor fit].
In the case of `COc1cc(CC(=O)OCC(=O)NCC(C)C)cc(OC)c1OC`, the half-maximal activity concentration (AC50) under setting [2] is 0.00517 µM [rising, full curve, poor fit].
With `Cc1c(/C=N\NC(=O)C2COc3ccccc3O2)c2ccccc2n1C` (centres undefined), the cell number change was -10.3%. Also, under setting [2], the AC50 was 0.651 µM [falling, single point].
Turning to `CCC(=O)Nc1ccc(SC#N)cc1C`, the cell number change was 57.6%. The AC50 under setting [1] was 7.31 µM [rising, partial curve].
Consider `CC(C)CC(NC(N)=O)C(=O)Nc1cccc([N+](=O)[O-])c1` (centres undefined), for which the cell number change stood at 1.46%. Further, the AC50 under setting [1] is 0.92 µM [rising, full curve, poor fit].
In the case of `Cc1ccc(C)c(N2CCN(C(=O)C34CC5CC(C3)CC(n3nnc(C)n3)(C5)C4)CC2)c1`, the cell number change was -66.8%. In addition, the AC50 under setting [1] is 8.2 µM [falling, partial curve]. The AC50 under setting [2] is 7.31 µM [falling, partial curve].
`Cc1cccc(-c2cnn(-c3cccc([N+](=O)[O-])c3)c2N)c1`: the cell number change was determined as 30.3%.
For `COc1ccc(/C=N/NC(=O)c2ccc(N3CCCC3=O)cc2)cc1`, the AC50 under setting [1] was 0.00517 µM [rising, full curve, poor fit].
Turning to `COC(=O)c1sc2nc(CN3CCOCC3)nc(N3CCOCC3)c2c1C`, the cell number change was -5.78%. Besides, the concentration at half-maximal activity (AC50) under setting [2] is 7.31 µM [rising, partial curve, poor fit].
With `COc1ccc(CCc2nc(-c3ccc(-n4cccc4)cc3)no2)cc1`, under setting [2], the AC50 was 1.64 µM [rising, partial curve, poor fit].
As for `N#Cc1cc2ccccc2nc1SCc1ccccn1`, the cell number change came out at 89.1%. Under setting [1], the AC50 is 29.1 µM [rising, single point]. Further, the AC50 under setting [2] was 20.6 µM [rising, partial curve].
Regarding `C=CCNC(=S)Nc1ccc2nsnc2c1`, the cell number change is -37.7%. Under setting [1], the AC50 was 3.26 µM [falling, partial curve]. For the same compound, the AC50 under setting [2] is 1.84 µM [falling, partial curve, poor fit].
